Measurements published in doi:10.1101/2020.01.27.921122.
These are yes or no findings as the source states them, for the method shown. Binding seen in cells or lysates may run through a third protein. Some binding calls cover weakened binding; strength is not graded here. For some assays here: Where a sequence is shown, tags or fusion partners need not be part of it.

Amino acid sequences for entries named in this document (tags omitted). A change or cut given only in a name is not applied to a line headed by its entry. Residues count along the entry.
UniProt O14727: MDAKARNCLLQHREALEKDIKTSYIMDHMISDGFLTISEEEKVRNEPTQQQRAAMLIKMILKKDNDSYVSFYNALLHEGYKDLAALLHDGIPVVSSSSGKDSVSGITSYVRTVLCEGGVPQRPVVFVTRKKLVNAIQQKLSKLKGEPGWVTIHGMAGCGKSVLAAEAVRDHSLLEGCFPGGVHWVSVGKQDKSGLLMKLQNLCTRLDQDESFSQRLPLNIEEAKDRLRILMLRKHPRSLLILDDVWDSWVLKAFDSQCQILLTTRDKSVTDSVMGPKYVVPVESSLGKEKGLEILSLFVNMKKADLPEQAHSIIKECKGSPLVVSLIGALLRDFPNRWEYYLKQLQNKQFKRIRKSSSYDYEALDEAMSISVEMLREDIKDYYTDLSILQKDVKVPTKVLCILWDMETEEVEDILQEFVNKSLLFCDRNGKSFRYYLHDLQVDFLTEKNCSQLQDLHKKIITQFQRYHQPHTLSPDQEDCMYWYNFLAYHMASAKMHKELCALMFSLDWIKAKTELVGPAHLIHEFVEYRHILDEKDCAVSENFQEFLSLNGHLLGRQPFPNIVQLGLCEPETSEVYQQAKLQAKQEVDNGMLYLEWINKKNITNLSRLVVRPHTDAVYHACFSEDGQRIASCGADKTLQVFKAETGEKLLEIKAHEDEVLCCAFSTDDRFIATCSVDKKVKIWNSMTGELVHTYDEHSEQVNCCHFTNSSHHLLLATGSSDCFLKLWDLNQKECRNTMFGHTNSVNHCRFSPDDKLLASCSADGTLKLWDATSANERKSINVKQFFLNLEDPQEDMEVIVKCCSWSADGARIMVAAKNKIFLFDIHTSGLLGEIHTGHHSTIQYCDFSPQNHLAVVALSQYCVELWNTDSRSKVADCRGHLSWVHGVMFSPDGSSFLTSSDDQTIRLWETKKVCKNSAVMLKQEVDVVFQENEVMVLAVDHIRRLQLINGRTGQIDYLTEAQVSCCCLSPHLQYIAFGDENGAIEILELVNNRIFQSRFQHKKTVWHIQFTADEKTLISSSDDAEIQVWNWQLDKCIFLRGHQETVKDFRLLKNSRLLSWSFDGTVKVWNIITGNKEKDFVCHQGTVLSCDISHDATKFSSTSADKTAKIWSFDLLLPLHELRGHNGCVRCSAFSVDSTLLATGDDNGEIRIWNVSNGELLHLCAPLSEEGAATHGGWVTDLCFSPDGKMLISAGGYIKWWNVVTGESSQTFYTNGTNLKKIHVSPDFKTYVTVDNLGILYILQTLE
Apaf-1(1-591AA)-His: residues 1-591 of O14727
Apaf-1(1-105)-His: residues 1-105 of O14727

T1: pro-caspase-11 (mouse (endogenous in BMDMs and liver)) (UniProt P70343)
T1 sequence: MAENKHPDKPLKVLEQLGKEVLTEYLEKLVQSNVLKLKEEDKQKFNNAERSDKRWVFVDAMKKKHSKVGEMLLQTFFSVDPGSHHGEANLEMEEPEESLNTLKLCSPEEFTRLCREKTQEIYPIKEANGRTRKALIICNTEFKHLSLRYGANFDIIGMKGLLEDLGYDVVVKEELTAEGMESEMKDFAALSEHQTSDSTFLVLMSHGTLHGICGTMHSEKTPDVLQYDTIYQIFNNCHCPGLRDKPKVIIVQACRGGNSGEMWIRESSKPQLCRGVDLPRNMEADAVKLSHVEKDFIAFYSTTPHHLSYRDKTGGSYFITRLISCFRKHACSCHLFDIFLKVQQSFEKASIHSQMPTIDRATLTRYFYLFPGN


Tests used:
[1] = target: T1, pro-caspase-11 (mouse (endogenous in BMDMs and liver)); test: co-IP
[2] = target: full length (Fl)-Apaf-1-His (human) (UniProt O14727); test: pull-down
[3] = target: Apaf-1(1-105)-His (human) (UniProt O14727); test: pull-down
[4] = target: Apaf-1(1-591AA)-His (human) (UniProt O14727); test: pull-down

| Binder | binding [1] | binding [2] | binding [3] | binding [4] |
| --- | --- | --- | --- | --- |
| full length GSDMD (protein, UniProt Q9D8T2 1-487) MPSAFEKVVKNVIKEVSGSRGDLIPVDSLRNSTSFRPYCLLNRKFSSSRFWKPRYSCVNLSIKDILEPSAPEPEPECFGSFKVSDVVDGNIQGRVMLSGMGEGKISGGAAVSDSSSASMNVCILRVTQKTWETMQHERHLQQPENKILQQLRSRGDDLFVVTEVLQTKEEVQITEVHSQEGSGQFTLPGALCLKGEGKGHQSRKKMVTIPAGSILAFRVAQLLIGSKWDILLVSDEKQRTFEPSSGDRKAVGQRHHGLNVLAALCSIGKQLSLLSDGIDEEELIEAADFQGLYAEVKACSSELESLEMELRQQILVNIGKILQDQPSMEALEASLGQGLCSGGQVEPLDGPAGCILECLVLDSGELVPELAAPIFYLLGALAVLSETQQQLLAKALETTVLSKQLELVKHVLEQSTPWQEQSSVSLPTVLLGDCWDEKNPTWVLLEECGLRLQVESPQVHWEPTSLIPTSALYASLFLLSSLGQKPC | binds |  |  |  |
| endogenous pro-caspase-4 (protein, UniProt P49662 1-377) MAEGNHRKKPLKVLESLGKDFLTGVLDNLVEQNVLNWKEEEKKKYYDAKTEDKVRVMADSMQEKQRMAGQMLLQTFFNIDQISPNKKAHPNMEAGPPESGESTDALKLCPHEEFLRLCKERAEEIYPIKERNNRTRLALIICNTEFDHLPPRNGADFDITGMKELLEGLDYSVDVEENLTARDMESALRAFATRPEHKSSDSTFLVLMSHGILEGICGTVHDEKKPDVLLYDTIFQIFNNRNCLSLKDKPKVIIVQACRGANRGELWVRDSPASLEVASSQSSENLEEDAVYKTHVEKDFIAFCSSTPHNVSWRDSTMGSIFITQLITCFQKYSWCCHLEEVFRKVQQSFETPRAKAQMPTIERLSMTRYFYLFPGN |  | binds |  |  |
| caspase-4-HA (protein, UniProt P49662 1-377) MAEGNHRKKPLKVLESLGKDFLTGVLDNLVEQNVLNWKEEEKKKYYDAKTEDKVRVMADSMQEKQRMAGQMLLQTFFNIDQISPNKKAHPNMEAGPPESGESTDALKLCPHEEFLRLCKERAEEIYPIKERNNRTRLALIICNTEFDHLPPRNGADFDITGMKELLEGLDYSVDVEENLTARDMESALRAFATRPEHKSSDSTFLVLMSHGILEGICGTVHDEKKPDVLLYDTIFQIFNNRNCLSLKDKPKVIIVQACRGANRGELWVRDSPASLEVASSQSSENLEEDAVYKTHVEKDFIAFCSSTPHNVSWRDSTMGSIFITQLITCFQKYSWCCHLEEVFRKVQQSFETPRAKAQMPTIERLSMTRYFYLFPGN |  | binds | binds | binds |
